In patent publication US20240124387A1, “ACID RECOVERY” (GREENCOVERY B.V., priority 2021, published 2024):

Tests used:
[1] = Adsorption of acid on weak anion exchange resin column; type: physicochemical; conditions: for amino acid adsorbed per mL of resin bed: 7.4 mL WBA, feed 1.92 g/L glutamate, 2.5 g/L leucine or alanine, until absorbance constant; for acid adsorbed per mL of the resin bed: 6.6 mL weak anion exchange resin, 30 mL of 20 g/L acid solution
[2] = Desorption of acid from weak anion exchange resin with alcoholic hydroxide eluent; type: physicochemical; conditions: for amino acid desorbed per mL of resin bed: 0.425 M KOH in 93.5 wt. % ethanol; for acid desorbed per mL of resin bed: eluent 90 wt. % ethanol, 10 wt. % water, 1M KOH

| SMILES | amino acid adsorbed per mL of resin bed [1] | amino acid desorbed per mL of resin bed [2] | acid adsorbed per mL of the resin bed [1] | acid desorbed per mL of resin bed [2] |
| --- | --- | --- | --- | --- |
| N[C@@H](CCC(=O)O)C(=O)O [Glutamic acid] | 16.2 mg per mL of resin bed | 7.4 mg per mL of resin bed |  |  |
| CC(C)C[C@H](N)C(=O)O [Leucine, L-leucine] | 21.5 mg per mL of resin bed | 16.2 mg per mL of resin bed |  |  |
| CC(O)C(=O)O (stereo not shown) [lactate, lactic acid] |  |  | 48.1 mg per mL of resin bed | 18.5 mg per mL of resin bed |
| C[C@H](N)C(=O)O [alanine, L-alanine] | 16.5 mg per mL of resin bed | 10.5 mg per mL of resin bed |  |  |
| CCCCCC(=O)O [caproate, caproic acid] |  |  | 38.3 mg per mL of resin bed | (essentially) all adsorbed caproate was desorbed |
